Measured values from the supplement of paper PMC3334620.
Over roughly 33,000 sequences, “E-score (-0.5 to 0.5)” has its median near -0.0059; the highest 2% begin near 0.26. The list shows a part of the results.

The sequences below were run against T1, Cin5 (UniProt P40917) (assay: PBM E-score (8-mer binding enrichment) (E-score (-0.5 to 0.5)); higher = stronger / more preferred TF binding). Conditions: protein concentration: 100 nM; construct: GST-full length.
T1 sequence: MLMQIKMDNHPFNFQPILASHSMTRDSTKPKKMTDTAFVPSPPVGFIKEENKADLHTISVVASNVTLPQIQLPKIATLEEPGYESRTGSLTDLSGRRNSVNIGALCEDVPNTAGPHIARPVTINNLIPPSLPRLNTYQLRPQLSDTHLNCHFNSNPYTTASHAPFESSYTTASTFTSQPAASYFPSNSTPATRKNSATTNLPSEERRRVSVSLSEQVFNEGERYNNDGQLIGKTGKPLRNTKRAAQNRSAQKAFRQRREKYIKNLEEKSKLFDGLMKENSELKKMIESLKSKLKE
Summary of the method: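 For each ungapped eight-base word taken together with its reverse complement, the Universal PBM Analysis Suite assigned an E-score. Binding data came from GST-tagged yeast transcription factors, applied at about 100-200 nM, on universal all-10-mer Agilent arrays made double-stranded by primer extension. Fluorescent anti-GST marked bound protein, and scans were normalised with masliner.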
With CGAAACCC the “PBM E-score” value was 0.03.
CATAGTTA was tested, and the “PBM E-score” value was 0.0725.
With ACTTCGCT the “PBM E-score” value was -0.0395.
With ATAGCCCA the “PBM E-score” value was 0.171.
With CCCCGCGA the “PBM E-score” value was 0.05.
For CCCTGACA, the “PBM E-score” value was 0.0252.
In the case of CGGAGGTC, the “PBM E-score” value is reported as -0.0513.
For CAATTTGA, the “PBM E-score” value was 0.0572.
In the case of TACAACGA, the “PBM E-score” value is reported as 0.153.
For GAGGACAA, the “PBM E-score” value was -0.0719.
For CAAGTGTA, the “PBM E-score” value was 0.0979.
For GCGCGCAA, the “PBM E-score” value was 0.217.
For CTACTATA, the “PBM E-score” value was 0.139.
With ACAAGGAA the “PBM E-score” value was 0.00248.
AAGTTGGT was tested, and the “PBM E-score” value was 0.165.
In the case of ACAATCCC, the “PBM E-score” value is reported as 0.117.
AGTACTCA was tested, and the “PBM E-score” value was -0.00067.
For GTACCGGA, the “PBM E-score” value was -0.00967.
With CCGGGATA the “PBM E-score” value was 0.08.
CGCCGTCC was tested, and the “PBM E-score” value was -0.0945.
For GGGGGTTA, the “PBM E-score” value was -0.444.
In the case of CTATGTGC, the “PBM E-score” value is reported as -0.038.
With AGTCGTGA the “PBM E-score” value was -0.0941.
For CGGGCGAC, the “PBM E-score” value was -0.243.
With AGCATGCG the “PBM E-score” value was -0.00219.
CCGGTCTC was tested, and the “PBM E-score” value was -0.235.
In the case of ACTAGAGA, the “PBM E-score” value is reported as -0.0579.
With GGGGTTAC the “PBM E-score” value was -0.237.
For CTTGGACC, the “PBM E-score” value was -0.323.
CGGGAATA was tested, and the “PBM E-score” value was 0.142.
For AGCAGAAC, the “PBM E-score” value was -0.0245.
For GACCATAC, the “PBM E-score” value was -0.0542.
For GGCGACCC, the “PBM E-score” value was -0.214.
In the case of CGTATTGC, the “PBM E-score” value is reported as -0.0339.
ACGTTGGC was tested, and the “PBM E-score” value was -0.143.
AGCACTTG was tested, and the “PBM E-score” value was -0.244.
For GACTGGTA, the “PBM E-score” value was 0.0326.
For AAACGCAG, the “PBM E-score” value was -0.0729.
For AAGTTCAG, the “PBM E-score” value was 0.0117.
In the case of CGCTGACC, the “PBM E-score” value is reported as -0.0149.
With AGTTAAGA the “PBM E-score” value was 0.0329.
With ACCTTCCC the “PBM E-score” value was -0.0216.
With CTAGCACC the “PBM E-score” value was -0.0666.
For AGACGTCT, the “PBM E-score” value was -0.169.
AAATGTGT was tested, and the “PBM E-score” value was 0.177.
AGCGAATA was tested, and the “PBM E-score” value was 0.0764.
TCAATGCA was tested, and the “PBM E-score” value was -0.102.
For CTGATGTA, the “PBM E-score” value was 0.266.
AACTGTAC was tested, and the “PBM E-score” value was -0.0314.
For GTGAATCA, the “PBM E-score” value was -0.0693.
In the case of CCGGCCCC, the “PBM E-score” value is reported as -0.337.
GTTATACA was tested, and the “PBM E-score” value was 0.181.
With ACCTTGAG the “PBM E-score” value was -0.0236.
With GAACAGTA the “PBM E-score” value was 0.128.
With GGGTAAAC the “PBM E-score” value was 0.0797.
For CAGAATGG, the “PBM E-score” value was 0.147.
In the case of ACCAGGGT, the “PBM E-score” value is reported as -0.14.
For AAATAGGG, the “PBM E-score” value was 0.0008.
For GGCACTTA, the “PBM E-score” value was -0.103.
With CAGTTAGG the “PBM E-score” value was 0.0747.
In the case of AGTCTTAG, the “PBM E-score” value is reported as -0.212.
With CTCACGGC the “PBM E-score” value was -0.0802.
With ATTGTACC the “PBM E-score” value was 0.0818.
With CACAGCTG the “PBM E-score” value was -0.0567.
GGTACCGA was tested, and the “PBM E-score” value was -0.36.
TACGCCGA was tested, and the “PBM E-score” value was -0.161.
In the case of ACGCAGGG, the “PBM E-score” value is reported as -0.0529.
CGTTTAAG was tested, and the “PBM E-score” value was -0.0992.
AAGCGGGG was tested, and the “PBM E-score” value was -0.192.
In the case of AGCTCAGC, the “PBM E-score” value is reported as -0.119.
With AACCATCG the “PBM E-score” value was 0.0953.
For CTCGGTGC, the “PBM E-score” value was -0.0668.
AAATTTAC was tested, and the “PBM E-score” value was -0.00308.
In the case of GAAAAACC, the “PBM E-score” value is reported as 0.0542.
With CGCACTGC the “PBM E-score” value was -0.00351.
In the case of CACCGCCA, the “PBM E-score” value is reported as 0.171.
GCGTCGCC was tested, and the “PBM E-score” value was -0.0364.
For CAATTGCC, the “PBM E-score” value was 0.00053.
With ATGCCCAC the “PBM E-score” value was 0.0146.
With CGGTTCTA the “PBM E-score” value was -0.00191.
In the case of CTCCAACC, the “PBM E-score” value is reported as 0.0502.
CCCCAGGG was tested, and the “PBM E-score” value was -0.4.
TAGAGAGA was tested, and the “PBM E-score” value was -0.0994.
In the case of GTGATAAC, the “PBM E-score” value is reported as 0.125.
ACAAATCA was tested, and the “PBM E-score” value was 0.19.
For AGAGATGG, the “PBM E-score” value was 0.179.
